According to the supplement of paper PMC12819154, “High-throughput peptide-centric local stability assay extends protein–ligand identification to membrane proteins, tissues and bacteria” (Nature Structural & Molecular Biology, 2025):
Some of the results follow. Most values lie at the level of the controls, where differences are scatter.

Chains of the proteins cited; added tags and fusions are not shown. Lines headed by an entry give the natural chain unless they say otherwise; changes in a name come on top.
UniProt Q9P2R6: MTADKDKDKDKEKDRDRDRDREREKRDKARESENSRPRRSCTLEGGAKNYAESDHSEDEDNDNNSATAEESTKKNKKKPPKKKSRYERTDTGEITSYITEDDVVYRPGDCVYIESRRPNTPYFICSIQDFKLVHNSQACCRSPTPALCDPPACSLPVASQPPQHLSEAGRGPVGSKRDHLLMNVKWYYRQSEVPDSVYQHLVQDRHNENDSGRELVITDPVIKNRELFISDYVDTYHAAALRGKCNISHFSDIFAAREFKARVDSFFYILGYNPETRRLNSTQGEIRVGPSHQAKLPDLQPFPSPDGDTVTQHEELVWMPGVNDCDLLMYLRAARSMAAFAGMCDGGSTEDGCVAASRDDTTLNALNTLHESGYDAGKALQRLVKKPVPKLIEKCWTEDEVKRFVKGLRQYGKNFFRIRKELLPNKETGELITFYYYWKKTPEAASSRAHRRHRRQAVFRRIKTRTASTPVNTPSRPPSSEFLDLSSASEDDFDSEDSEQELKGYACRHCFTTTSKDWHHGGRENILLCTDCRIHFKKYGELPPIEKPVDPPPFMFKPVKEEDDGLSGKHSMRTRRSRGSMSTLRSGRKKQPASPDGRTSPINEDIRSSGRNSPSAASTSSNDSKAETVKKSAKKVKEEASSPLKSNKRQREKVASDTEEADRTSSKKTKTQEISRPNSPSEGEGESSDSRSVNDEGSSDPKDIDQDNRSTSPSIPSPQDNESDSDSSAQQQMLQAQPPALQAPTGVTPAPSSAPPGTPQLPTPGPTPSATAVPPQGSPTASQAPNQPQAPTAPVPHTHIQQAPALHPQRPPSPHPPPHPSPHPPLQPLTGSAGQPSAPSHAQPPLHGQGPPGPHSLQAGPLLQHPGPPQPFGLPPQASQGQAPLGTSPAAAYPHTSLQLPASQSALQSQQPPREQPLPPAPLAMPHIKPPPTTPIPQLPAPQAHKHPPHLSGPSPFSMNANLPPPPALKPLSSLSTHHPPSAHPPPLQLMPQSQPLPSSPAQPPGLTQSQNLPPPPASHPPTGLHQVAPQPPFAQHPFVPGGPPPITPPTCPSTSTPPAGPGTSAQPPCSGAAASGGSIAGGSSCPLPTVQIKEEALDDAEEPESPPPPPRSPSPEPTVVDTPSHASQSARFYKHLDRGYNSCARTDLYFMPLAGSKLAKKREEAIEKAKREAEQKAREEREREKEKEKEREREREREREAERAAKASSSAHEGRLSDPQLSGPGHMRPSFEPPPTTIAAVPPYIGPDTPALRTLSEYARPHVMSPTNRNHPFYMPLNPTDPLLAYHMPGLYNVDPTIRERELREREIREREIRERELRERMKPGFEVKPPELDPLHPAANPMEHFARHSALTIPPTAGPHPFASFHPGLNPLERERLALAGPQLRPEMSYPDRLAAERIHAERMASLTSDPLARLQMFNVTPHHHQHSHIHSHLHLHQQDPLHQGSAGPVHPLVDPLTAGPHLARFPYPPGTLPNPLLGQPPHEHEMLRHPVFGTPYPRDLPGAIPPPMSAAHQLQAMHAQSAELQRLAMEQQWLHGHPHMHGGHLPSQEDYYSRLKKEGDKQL
UniProt Q9P000, whole entry: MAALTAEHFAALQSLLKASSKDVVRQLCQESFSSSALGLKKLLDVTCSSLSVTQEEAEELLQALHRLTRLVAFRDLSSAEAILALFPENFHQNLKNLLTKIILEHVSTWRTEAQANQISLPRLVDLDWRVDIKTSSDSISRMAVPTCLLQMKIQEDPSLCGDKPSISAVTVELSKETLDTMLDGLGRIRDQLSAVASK
UniProt Q9P2D1: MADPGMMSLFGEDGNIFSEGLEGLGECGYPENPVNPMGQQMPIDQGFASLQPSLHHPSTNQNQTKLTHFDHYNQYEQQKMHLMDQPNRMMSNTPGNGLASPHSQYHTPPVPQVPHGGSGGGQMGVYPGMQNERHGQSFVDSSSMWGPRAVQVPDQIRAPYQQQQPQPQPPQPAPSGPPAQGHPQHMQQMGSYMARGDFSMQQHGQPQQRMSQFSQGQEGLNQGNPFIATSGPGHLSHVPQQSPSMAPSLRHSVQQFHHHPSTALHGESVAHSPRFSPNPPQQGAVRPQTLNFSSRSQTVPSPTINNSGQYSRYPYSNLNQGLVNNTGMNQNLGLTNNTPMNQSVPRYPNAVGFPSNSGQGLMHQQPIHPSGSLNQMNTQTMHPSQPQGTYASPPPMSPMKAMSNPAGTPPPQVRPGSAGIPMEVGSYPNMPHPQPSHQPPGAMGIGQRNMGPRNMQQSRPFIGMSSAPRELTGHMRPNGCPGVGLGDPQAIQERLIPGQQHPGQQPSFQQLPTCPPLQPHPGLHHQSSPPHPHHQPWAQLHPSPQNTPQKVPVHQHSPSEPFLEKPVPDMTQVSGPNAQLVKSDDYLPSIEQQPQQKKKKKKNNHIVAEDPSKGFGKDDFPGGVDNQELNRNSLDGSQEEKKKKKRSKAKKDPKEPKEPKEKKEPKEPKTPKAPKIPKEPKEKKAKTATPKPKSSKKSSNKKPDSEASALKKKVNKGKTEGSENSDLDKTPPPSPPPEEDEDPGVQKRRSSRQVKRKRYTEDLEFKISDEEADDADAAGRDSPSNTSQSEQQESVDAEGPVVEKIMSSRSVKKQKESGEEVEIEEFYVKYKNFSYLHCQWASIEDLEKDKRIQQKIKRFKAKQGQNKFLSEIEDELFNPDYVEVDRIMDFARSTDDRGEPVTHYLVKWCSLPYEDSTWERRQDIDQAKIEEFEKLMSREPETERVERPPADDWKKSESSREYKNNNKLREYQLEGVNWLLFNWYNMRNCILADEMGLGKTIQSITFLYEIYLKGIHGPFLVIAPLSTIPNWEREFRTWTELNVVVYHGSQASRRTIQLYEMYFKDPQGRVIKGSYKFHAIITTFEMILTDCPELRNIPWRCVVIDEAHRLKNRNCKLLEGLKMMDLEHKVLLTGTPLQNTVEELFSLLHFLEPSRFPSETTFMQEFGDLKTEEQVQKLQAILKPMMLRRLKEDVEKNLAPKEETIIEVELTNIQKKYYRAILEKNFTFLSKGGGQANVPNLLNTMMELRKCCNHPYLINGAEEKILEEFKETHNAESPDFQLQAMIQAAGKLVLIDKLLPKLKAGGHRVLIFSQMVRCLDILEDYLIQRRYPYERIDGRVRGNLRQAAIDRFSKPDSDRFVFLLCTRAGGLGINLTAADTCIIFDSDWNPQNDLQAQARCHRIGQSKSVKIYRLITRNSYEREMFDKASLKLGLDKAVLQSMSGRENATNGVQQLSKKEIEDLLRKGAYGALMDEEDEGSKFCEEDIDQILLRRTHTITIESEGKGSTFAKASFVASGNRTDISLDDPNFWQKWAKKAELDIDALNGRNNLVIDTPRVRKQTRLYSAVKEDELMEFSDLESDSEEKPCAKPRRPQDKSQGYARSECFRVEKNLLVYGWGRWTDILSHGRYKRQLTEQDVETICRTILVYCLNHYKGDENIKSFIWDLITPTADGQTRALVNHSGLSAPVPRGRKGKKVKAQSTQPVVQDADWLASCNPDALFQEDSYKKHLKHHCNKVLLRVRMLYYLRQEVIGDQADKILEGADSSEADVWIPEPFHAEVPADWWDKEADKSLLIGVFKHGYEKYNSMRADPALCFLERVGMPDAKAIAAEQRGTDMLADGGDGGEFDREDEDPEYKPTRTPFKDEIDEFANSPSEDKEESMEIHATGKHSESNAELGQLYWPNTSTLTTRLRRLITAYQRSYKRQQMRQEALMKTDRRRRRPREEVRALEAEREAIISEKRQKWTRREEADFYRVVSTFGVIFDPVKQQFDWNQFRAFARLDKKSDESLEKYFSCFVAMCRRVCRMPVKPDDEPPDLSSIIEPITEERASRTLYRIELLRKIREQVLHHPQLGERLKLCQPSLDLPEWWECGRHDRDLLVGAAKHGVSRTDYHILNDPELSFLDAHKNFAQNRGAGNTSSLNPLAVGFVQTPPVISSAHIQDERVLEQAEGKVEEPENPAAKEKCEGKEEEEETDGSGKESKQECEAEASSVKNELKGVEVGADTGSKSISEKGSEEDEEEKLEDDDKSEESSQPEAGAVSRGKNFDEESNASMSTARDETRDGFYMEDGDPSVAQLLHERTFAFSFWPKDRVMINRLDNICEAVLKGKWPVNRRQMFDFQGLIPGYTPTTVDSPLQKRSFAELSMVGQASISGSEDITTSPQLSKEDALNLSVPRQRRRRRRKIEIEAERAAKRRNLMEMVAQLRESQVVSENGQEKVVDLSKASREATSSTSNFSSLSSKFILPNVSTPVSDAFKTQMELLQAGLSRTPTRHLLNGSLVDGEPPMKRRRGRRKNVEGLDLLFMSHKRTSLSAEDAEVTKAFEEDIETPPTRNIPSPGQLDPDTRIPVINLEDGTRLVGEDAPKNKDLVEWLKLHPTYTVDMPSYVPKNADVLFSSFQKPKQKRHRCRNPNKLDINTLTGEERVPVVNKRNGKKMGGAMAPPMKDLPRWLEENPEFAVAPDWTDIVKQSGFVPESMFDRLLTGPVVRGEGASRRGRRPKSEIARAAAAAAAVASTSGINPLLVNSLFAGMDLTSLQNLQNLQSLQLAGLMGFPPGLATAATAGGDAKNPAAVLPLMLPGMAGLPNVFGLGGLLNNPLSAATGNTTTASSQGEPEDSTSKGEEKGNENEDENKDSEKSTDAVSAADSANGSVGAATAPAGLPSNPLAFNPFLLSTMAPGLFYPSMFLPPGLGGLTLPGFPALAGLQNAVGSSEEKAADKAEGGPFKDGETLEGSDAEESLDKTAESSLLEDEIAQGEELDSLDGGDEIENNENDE
UniProt Q9P021, whole entry: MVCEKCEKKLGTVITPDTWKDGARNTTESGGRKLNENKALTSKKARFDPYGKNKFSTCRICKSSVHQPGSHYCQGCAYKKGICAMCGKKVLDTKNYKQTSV
UniProt Q9NZ63: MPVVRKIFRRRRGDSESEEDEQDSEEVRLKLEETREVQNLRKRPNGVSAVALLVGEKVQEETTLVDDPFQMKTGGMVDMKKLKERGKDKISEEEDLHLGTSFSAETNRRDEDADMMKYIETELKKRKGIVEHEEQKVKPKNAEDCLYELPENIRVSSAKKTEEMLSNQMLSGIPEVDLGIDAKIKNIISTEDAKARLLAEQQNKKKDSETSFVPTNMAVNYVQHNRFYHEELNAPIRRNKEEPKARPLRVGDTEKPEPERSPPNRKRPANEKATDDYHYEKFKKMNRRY
UniProt Q9UIM3: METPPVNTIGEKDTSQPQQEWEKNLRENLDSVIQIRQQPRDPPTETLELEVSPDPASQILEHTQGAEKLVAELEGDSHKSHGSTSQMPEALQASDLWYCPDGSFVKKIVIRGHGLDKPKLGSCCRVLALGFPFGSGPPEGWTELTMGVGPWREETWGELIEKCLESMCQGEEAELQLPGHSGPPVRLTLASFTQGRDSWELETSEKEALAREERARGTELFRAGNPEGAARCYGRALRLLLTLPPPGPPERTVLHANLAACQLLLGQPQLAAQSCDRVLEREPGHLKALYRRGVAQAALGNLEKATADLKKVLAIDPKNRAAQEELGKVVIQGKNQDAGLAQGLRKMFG
UniProt Q9P2S5: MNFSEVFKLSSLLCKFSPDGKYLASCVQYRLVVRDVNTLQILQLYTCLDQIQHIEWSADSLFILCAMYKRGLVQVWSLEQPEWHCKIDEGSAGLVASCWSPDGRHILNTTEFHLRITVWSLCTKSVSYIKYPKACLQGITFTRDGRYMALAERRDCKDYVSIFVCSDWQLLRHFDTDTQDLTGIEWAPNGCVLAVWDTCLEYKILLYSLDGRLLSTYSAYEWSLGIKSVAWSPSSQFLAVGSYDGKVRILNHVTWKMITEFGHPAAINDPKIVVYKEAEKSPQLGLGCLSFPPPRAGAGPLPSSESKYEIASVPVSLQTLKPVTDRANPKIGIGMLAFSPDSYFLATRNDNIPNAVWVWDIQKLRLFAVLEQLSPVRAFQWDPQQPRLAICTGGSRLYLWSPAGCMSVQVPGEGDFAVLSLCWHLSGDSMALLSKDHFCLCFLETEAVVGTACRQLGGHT

compound: CN[C@@H]1C[C@H]2O[C@@](C)([C@@H]1OC)n1c3ccccc3c3c4c(c5c6ccccc6n2c5c31)C(=O)NC4 [staurosporine]; test: log2 fold change of tryptic peptide abundance, ligand vs vehicle (limited proteolysis) (log2 ratio); higher = more trypsin-susceptible (destabilized); conditions: ligand concentration: 20 uM; sample: K562 cleared lysate; digestion: 4 min, 22 C (HT-PELSA RT4min, Orbitrap Astral)

| Target | log2 fold change |
| --- | --- |
| RERE (peptide sequence: VDSFFYILGYNPETR, peptide start residue: 263) (UniProt Q9P2R6) | -0.141 |
| COMMD9 (peptide sequence: ETLDTMLDGLGR, peptide start residue: 176) (UniProt Q9P000) | 0.77 |
| TCF20 (peptide sequence: LQESCWDLSR, peptide start residue: 1184) (UniProt Q9UGU0) | 0.504 |
| CHD7 (peptide sequence: NVEGLDLLFMSHK, peptide start residue: 2518) (UniProt Q9P2D1) | -0.386 |
| CRIPT (peptide sequence: GICAMCGKK, peptide start residue: 81) (UniProt Q9P021) | 0.253 |
| C9orf78 (peptide sequence: VGDTEKPEPER, peptide start residue: 250) (UniProt Q9NZ63) | 0.384 |
| FKBPL (peptide sequence: LTLASFTQGR, peptide start residue: 187) (UniProt Q9UIM3) | 0.261 |
| UniProt Q9P2S5 (peptide sequence: MITEFGHPAAINDPK, peptide start residue: 257) | -0.412 |
